Reference: the supplement of paper PMC12819154, “High-throughput peptide-centric local stability assay extends protein–ligand identification to membrane proteins, tissues and bacteria” (Nature Structural & Molecular Biology, 2025)
Some of the results follow. Small differences around the control level are noise.

Sequences of proteins named here, by UniProt entry; tags and fusion partners are left off. A change or cut given only in a name is not applied to a line headed by its entry.
UniProt O95433, whole entry: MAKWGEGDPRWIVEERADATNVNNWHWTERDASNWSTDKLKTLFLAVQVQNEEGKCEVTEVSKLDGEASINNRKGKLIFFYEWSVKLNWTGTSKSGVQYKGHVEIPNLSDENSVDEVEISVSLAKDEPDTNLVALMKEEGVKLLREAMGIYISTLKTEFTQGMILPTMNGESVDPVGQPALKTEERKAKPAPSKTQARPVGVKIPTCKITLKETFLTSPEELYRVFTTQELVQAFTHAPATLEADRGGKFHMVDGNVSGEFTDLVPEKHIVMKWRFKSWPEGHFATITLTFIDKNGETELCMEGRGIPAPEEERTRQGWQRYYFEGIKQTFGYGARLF
UniProt O95848: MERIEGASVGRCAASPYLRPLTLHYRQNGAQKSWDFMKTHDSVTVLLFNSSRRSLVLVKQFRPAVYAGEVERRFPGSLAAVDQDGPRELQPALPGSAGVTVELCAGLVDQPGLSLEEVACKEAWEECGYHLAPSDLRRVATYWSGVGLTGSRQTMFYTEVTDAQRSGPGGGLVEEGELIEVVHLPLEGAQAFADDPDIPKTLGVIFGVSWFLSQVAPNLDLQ
UniProt O94913, whole entry: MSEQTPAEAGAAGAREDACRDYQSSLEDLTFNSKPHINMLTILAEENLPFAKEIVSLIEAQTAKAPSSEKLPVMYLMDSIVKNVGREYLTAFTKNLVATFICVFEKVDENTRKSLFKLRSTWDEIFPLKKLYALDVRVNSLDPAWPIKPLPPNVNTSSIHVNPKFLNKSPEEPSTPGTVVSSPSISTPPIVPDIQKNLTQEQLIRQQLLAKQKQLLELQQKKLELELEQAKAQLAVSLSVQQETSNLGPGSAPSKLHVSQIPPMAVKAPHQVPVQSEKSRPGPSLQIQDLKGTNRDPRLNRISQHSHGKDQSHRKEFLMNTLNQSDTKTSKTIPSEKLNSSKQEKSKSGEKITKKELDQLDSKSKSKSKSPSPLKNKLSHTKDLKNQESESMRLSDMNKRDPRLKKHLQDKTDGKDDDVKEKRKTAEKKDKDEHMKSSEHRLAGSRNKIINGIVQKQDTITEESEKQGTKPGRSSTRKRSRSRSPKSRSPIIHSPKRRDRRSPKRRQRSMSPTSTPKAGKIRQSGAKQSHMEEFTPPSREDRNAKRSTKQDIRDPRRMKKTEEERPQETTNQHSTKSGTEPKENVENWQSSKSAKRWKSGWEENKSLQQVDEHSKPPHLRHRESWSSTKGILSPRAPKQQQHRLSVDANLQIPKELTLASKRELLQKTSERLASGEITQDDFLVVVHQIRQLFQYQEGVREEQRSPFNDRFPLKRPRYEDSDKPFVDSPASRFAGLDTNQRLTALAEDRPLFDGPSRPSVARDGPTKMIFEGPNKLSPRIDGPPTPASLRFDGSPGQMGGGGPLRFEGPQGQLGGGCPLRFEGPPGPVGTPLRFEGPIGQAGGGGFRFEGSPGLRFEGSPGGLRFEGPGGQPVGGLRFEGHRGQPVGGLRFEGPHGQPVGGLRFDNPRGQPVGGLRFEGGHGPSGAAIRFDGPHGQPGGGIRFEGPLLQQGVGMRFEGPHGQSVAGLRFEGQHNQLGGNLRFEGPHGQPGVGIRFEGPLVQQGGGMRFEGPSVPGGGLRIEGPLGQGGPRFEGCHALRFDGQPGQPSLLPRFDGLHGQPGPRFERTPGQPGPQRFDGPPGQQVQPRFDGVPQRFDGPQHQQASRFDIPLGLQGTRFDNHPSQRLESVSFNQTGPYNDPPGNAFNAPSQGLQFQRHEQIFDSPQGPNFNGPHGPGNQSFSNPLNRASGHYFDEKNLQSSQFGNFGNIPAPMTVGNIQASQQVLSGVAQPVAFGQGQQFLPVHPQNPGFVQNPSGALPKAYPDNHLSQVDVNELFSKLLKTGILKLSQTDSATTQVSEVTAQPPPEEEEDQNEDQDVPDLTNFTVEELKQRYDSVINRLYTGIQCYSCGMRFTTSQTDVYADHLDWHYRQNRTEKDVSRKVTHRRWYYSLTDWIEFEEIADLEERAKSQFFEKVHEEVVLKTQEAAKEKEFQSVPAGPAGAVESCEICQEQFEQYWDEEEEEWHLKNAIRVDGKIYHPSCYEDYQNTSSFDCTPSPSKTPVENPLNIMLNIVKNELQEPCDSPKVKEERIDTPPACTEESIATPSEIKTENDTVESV
UniProt O95684: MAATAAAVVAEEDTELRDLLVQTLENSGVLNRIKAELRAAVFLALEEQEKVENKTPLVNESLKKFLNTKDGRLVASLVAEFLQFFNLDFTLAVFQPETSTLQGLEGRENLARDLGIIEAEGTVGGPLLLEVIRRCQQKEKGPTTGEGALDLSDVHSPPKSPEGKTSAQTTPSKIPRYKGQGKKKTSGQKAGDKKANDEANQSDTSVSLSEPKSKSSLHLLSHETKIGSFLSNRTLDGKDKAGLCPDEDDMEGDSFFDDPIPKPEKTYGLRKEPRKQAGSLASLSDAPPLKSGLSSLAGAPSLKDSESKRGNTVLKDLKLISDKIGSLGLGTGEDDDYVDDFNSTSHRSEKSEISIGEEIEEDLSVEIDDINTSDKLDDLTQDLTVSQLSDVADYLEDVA
UniProt O75694: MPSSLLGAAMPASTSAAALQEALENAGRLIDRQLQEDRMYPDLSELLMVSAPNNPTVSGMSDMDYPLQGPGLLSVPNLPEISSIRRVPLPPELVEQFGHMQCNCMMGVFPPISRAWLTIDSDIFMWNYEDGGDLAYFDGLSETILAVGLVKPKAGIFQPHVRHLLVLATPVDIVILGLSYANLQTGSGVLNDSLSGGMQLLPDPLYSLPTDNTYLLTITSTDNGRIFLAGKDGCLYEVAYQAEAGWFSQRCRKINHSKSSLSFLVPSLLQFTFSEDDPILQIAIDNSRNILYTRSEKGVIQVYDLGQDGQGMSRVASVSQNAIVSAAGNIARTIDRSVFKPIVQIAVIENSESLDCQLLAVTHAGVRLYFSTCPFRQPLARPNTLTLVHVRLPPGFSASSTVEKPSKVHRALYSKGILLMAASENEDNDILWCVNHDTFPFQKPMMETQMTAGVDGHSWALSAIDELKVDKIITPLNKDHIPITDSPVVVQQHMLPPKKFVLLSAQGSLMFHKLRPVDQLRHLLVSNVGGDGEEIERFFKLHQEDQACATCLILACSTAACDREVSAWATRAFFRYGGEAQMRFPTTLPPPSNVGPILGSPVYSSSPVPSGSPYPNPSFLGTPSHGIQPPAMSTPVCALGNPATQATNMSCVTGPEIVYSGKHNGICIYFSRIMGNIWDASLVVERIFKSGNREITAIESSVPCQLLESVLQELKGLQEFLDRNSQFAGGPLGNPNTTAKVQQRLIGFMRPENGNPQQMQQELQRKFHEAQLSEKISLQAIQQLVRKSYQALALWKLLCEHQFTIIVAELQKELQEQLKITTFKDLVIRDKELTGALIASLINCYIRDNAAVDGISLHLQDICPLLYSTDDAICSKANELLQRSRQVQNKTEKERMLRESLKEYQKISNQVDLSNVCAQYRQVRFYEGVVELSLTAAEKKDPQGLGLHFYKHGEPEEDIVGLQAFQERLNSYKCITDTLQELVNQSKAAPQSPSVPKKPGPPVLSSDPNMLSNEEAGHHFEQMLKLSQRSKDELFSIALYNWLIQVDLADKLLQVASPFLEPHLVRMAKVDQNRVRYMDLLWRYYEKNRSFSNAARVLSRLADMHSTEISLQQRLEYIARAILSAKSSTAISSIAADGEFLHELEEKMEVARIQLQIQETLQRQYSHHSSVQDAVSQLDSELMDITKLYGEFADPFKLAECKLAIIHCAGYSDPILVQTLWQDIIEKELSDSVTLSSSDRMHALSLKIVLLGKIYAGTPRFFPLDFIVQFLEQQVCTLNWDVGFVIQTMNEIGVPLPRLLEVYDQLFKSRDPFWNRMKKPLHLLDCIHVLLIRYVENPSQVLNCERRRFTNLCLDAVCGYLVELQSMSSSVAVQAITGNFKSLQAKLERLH
UniProt O75461: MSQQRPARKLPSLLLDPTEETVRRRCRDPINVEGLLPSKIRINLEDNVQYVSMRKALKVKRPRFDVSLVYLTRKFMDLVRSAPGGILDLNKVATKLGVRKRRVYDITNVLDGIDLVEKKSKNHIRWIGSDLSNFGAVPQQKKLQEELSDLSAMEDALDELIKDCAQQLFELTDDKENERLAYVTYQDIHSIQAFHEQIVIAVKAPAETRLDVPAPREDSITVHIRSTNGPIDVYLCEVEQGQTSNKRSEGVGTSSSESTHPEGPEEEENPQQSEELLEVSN
UniProt O95297: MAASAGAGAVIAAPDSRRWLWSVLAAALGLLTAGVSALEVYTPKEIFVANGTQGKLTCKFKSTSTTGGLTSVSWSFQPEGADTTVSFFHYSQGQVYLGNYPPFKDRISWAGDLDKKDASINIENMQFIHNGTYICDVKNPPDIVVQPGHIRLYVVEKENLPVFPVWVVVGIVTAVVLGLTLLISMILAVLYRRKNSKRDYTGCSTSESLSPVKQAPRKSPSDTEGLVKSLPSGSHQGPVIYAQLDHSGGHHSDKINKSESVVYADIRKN
UniProt O95758: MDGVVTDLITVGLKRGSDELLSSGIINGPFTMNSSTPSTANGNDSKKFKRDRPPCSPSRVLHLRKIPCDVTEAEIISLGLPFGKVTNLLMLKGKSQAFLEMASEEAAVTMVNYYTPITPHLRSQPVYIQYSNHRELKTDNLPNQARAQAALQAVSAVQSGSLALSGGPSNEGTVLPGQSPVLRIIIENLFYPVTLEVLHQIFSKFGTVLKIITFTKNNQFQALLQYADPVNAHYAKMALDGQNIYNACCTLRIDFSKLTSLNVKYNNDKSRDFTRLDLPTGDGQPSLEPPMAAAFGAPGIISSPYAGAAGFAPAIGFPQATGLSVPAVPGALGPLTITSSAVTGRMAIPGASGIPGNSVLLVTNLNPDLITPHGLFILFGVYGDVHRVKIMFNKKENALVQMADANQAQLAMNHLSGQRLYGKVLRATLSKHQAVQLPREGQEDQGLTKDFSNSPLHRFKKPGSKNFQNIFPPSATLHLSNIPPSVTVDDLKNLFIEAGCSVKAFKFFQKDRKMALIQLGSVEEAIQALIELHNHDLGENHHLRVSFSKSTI
UniProt O95372: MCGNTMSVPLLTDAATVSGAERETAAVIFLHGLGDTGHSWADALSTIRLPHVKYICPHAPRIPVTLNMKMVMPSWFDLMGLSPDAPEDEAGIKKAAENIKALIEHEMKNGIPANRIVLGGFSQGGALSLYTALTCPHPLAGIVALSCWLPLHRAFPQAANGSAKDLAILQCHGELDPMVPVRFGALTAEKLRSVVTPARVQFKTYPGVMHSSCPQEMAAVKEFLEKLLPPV
UniProt O75971: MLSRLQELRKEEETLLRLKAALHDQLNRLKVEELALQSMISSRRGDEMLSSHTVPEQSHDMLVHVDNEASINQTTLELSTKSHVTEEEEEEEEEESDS
UniProt O94804: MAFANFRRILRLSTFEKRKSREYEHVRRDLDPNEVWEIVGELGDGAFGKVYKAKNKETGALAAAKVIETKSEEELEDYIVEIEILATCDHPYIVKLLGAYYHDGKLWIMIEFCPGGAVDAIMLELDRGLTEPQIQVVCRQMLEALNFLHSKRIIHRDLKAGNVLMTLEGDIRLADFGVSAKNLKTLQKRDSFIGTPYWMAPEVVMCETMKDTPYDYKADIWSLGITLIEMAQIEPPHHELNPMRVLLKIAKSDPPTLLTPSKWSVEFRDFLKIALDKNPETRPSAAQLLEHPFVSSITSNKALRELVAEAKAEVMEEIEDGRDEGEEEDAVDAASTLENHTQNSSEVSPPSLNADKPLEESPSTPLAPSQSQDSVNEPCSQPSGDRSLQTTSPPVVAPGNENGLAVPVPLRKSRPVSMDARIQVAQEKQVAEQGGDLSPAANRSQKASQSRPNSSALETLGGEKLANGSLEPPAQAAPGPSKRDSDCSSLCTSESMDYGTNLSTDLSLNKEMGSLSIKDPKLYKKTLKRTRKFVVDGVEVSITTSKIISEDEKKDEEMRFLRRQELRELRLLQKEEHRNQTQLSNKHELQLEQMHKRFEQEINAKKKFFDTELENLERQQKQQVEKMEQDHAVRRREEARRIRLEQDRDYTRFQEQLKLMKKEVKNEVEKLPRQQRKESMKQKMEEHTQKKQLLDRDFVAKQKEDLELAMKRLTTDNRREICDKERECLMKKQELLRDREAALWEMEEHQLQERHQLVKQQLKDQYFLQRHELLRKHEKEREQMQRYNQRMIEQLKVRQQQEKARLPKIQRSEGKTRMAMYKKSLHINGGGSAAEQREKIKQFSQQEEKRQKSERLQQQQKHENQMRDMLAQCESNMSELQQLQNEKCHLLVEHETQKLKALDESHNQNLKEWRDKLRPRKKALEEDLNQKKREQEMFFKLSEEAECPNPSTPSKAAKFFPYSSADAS
UniProt O95292, whole entry: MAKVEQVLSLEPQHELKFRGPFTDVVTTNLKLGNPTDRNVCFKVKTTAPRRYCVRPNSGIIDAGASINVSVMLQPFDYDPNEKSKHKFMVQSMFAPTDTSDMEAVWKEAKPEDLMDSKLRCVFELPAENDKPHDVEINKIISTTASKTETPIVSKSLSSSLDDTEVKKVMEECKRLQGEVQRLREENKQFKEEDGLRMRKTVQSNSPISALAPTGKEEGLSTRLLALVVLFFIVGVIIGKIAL

Compound: CN[C@@H]1C[C@H]2O[C@@](C)([C@@H]1OC)n1c3ccccc3c3c4c(c5c6ccccc6n2c5c31)C(=O)NC4 [staurosporine]
Experiment: log2 fold change of tryptic peptide abundance, ligand vs vehicle (limited proteolysis) (log2 ratio); higher = more trypsin-susceptible (destabilized)
Details: ligand concentration: 20 uM; sample: K562 cleared lysate; digestion: 4 min, 22 C (HT-PELSA RT4min, Orbitrap Astral)

Q: With “SNX4 (peptide sequence: IASHPILCR, peptide start residue: 165) (UniProt O95219)” as the target, how does the log2 fold change read?
A: 0.201

Q: How did the log2 fold change turn out when “AHSA1 (peptide sequence: LDGEASINNR, peptide start residue: 64) (UniProt O95433)” was run?
A: 0.553

Q: For “GMNN (peptide sequence: ALYEALKENEK, peptide start residue: 109) (UniProt O75496)”, which log2 fold change is on record?
A: -0.416

Q: Which log2 fold change does the source give for “UniProt O75437 (peptide sequence: CEECGEAFNR, peptide start residue: 268)” here?
A: 0.117

Q: For “NUDT14 (peptide sequence: CAASPYLRPLTLHYR, peptide start residue: 12) (UniProt O95848)”, which log2 fold change is on record?
A: -0.207

Q: With “VPS26A (peptide sequence: YFLNLVLVDEEDRR, peptide start residue: 272) (UniProt O75436)” as the target, how does the log2 fold change read?
A: -0.394

Q: How did the log2 fold change turn out when “IPO13 (peptide sequence: AQLFTQITR, peptide start residue: 103) (UniProt O94829)” was run?
A: 0.17

Q: How did the log2 fold change turn out when “PCF11 (peptide sequence: FTTSQTDVYADHLDWHYR, peptide start residue: 1350) (UniProt O94913)” was run?
A: -0.42

Q: “FGFR1OP (peptide sequence: TSAQTTPSKIPR, peptide start residue: 165) (UniProt O95684)” was tested. Which log2 fold change did it give?
A: 0.245

Q: Which log2 fold change does the source give for “SNAP29 (peptide sequence: GVLERTEK, peptide start residue: 86) (UniProt O95721)” here?
A: 1

Q: Which log2 fold change does the source give for “NUP155 (peptide sequence: MKKPLHLLDCIHVLLIR, peptide start residue: 1317) (UniProt O75694)” here?
A: 0.757

Q: With “E2F6 (peptide sequence: EDSITVHIR, peptide start residue: 217) (UniProt O75461)” as the target, how does the log2 fold change read?
A: -0.465

Q: “CNOT4 (peptide sequence: KALADLIEK, peptide start residue: 413) (UniProt O95628)” was tested. Which log2 fold change did it give?
A: 0.169

Q: With “MPZL1 (peptide sequence: KSPSDTEGLVK, peptide start residue: 218) (UniProt O95297)” as the target, how does the log2 fold change read?
A: 0.171

Q: Which log2 fold change does the source give for “UniProt O95758 (peptide sequence: VKIMFNKK, peptide start residue: 388)” here?
A: 0.577

Q: “CRTAP (peptide sequence: DELMPLESAYR, peptide start residue: 39) (UniProt O75718)” was tested. Which log2 fold change did it give?
A: 0.137

Q: “UniProt O95789 (peptide sequence: AVVPQQELLDK, peptide start residue: 12)” was tested. Which log2 fold change did it give?
A: 0.226

Q: How did the log2 fold change turn out when “LYPLA2 (peptide sequence: TYPGVMHSSCPQEMAAVK, peptide start residue: 204) (UniProt O95372)” was run?
A: 0.162

Q: For “APBA3 (peptide sequence: RPAPQDHGR, peptide start residue: 315) (UniProt O96018)”, which log2 fold change is on record?
A: 0.925

Q: Which log2 fold change does the source give for “FMNL1 (peptide sequence: IVSQKDDVHVCIMCLR, peptide start residue: 220) (UniProt O95466)” here?
A: -0.286

Q: “MRPL33 (peptide sequence: EKLTLLHYDPVVK, peptide start residue: 39) (UniProt O75394)” was tested. Which log2 fold change did it give?
A: -0.161

Q: With “SBF1 (peptide sequence: GAFMKPWK, peptide start residue: 1773) (UniProt O95248)” as the target, how does the log2 fold change read?
A: 0.87

Q: With “SNAPC5 (peptide sequence: LKVEELALQSMISSR, peptide start residue: 29) (UniProt O75971)” as the target, how does the log2 fold change read?
A: 0.253

Q: For “PPP1R37 (peptide sequence: ALLAEIQNGCK, peptide start residue: 442) (UniProt O75864)”, which log2 fold change is on record?
A: -0.334

Q: With “UniProt O94804 (peptide sequence: ALDESHNQNLK, peptide start residue: 901)” as the target, how does the log2 fold change read?
A: 0.53

Q: For “SEC24D (peptide sequence: GGQVYATNTR, peptide start residue: 279) (UniProt O94855)”, which log2 fold change is on record?
A: -0.215

Q: How did the log2 fold change turn out when “RNF8 (peptide sequence: GEPGFFVTGDR, peptide start residue: 2) (UniProt O76064)” was run?
A: -0.274

Q: How did the log2 fold change turn out when “NDUFS3 (peptide sequence: ILTDYGFEGHPFR, peptide start residue: 187) (UniProt O75489)” was run?
A: 0.633

Q: For “ACTL6A (peptide sequence: ENMEAISPLK, peptide start residue: 80) (UniProt O96019)”, which log2 fold change is on record?
A: 0.387

Q: With “CLPX (peptide sequence: RAAAAADLANR, peptide start residue: 452) (UniProt O76031)” as the target, how does the log2 fold change read?
A: 0.321

Q: How did the log2 fold change turn out when “UniProt O95153 (peptide sequence: GGLPVIEGPR, peptide start residue: 1450)” was run?
A: -0.0186

Q: For “MICAL2 (peptide sequence: VDGQTGENDMNKR, peptide start residue: 666) (UniProt O94851)”, which log2 fold change is on record?
A: -0.615

Q: Which log2 fold change does the source give for “JRK (peptide sequence: VLYEWFLGKR, peptide start residue: 92) (UniProt O75564)” here?
A: -0.578

Q: Which log2 fold change does the source give for “VAPB (peptide sequence: IISTTASKTETPIVSK, peptide start residue: 140) (UniProt O95292)” here?
A: -0.39

Q: Which log2 fold change does the source give for “RPP40 (peptide sequence: HLLVCEK, peptide start residue: 13) (UniProt O75818)” here?
A: 0.243

Q: “POLR1A (peptide sequence: DFNMIDLK, peptide start residue: 857) (UniProt O95602)” was tested. Which log2 fold change did it give?
A: 0.584
